Data as given in paper PMC4928008.
These are yes or no findings as the source states them, for the method shown. Binding seen in cells or lysates may run through a third protein. Some binding calls cover weakened binding; strength is not graded here.

Sequences of proteins named here, by UniProt entry; tags and fusion partners are left off.
UniProt Q04206: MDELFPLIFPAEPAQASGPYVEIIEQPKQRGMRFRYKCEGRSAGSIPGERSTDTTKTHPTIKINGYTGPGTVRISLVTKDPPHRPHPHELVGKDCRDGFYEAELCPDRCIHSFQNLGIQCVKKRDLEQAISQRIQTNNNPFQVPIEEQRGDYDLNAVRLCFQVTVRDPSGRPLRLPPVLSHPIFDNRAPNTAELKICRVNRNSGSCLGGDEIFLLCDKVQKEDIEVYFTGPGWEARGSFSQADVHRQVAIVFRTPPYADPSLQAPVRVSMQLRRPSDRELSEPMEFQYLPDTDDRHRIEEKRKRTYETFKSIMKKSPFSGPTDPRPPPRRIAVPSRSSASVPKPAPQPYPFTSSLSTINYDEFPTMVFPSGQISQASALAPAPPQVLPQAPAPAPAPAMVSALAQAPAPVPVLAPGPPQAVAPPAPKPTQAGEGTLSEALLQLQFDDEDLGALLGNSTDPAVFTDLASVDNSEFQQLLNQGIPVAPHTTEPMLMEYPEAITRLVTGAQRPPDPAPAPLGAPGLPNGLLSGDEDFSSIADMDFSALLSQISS
UniProt O43474: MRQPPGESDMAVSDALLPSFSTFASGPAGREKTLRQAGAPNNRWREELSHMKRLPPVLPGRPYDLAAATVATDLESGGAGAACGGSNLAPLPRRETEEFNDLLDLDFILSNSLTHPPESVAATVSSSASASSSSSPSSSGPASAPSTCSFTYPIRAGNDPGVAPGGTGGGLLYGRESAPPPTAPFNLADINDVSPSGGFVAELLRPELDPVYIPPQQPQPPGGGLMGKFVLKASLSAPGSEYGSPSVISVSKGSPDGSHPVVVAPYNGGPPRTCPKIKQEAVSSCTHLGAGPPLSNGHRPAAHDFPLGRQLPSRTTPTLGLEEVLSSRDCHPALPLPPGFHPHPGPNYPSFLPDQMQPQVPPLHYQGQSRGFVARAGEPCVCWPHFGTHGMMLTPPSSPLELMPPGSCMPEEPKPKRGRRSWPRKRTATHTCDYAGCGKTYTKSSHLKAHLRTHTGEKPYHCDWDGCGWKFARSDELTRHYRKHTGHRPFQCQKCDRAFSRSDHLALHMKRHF

How the values were obtained:
[1] = target: nuclear factor-kappa B p65 (human (endogenous in RA FLSs)) (UniProt Q04206); assay: co-IP; nuclear extracts (50 μg) of RA FLSs incubated with anti-NF-κB-p65, anti-KLF4 or rabbit IgG (1 μg) in IP buffer (50 mM Tris-HCl pH 7.6, 150 mM sodium chloride, 1% Nonidet P-40, 0.5% sodium deoxycholate) at 4°C overnight; Sepharose G beads; immunoblotting
[2] = target: Krüppel-like factor 4 (human (endogenous in RA FLSs)) (UniProt O43474); assay: as above

## Krüppel-like factor 4 (from UniProt O43474 1-513)
[1]
  binding: binds

## nuclear factor-kappa B p65 (from UniProt Q04206 1-551)
[2]
  binding: binds
